{"source": "patent US20250011363A1", "about": "“OPTIMIZED SHORTENED PEPTIDE THAT BINDS TO ACETYLCHOLINE RECEPTOR, AND USE THEREOF” (SKINMED CO., LTD., priority 2021, published 2025)", "key": {"[1]": {"biological_target": "T1, Acetylcholine receptor-overexpressing TE671 cells (Homo sapiens, UniProt P02708)", "T1 construct": "endogenous in cells; host or cells: TE671 cells", "assay": "Calcium imaging (Fura-2-AM) of nicotine response, acetylcholine receptor inhibition", "format": "cell-based", "conditions": "nicotine 400 uM", "protocol": "Acetylcholine receptor-overexpressing TE671 cells were cultured at 37° C. in DMEM medium supplemented with 10% FBS and 1% P/S under 5% CO2. After the TE671 cells were sufficiently grown for 4 days, the cells were detached using trypsin and the cell culture was plated in an amount of 1 ml at a density of 2×10^4 cells/well into 12-well cell culture plate with an 18 mm cover-slip lined therein, and cultured for 4 days.\nThe cover-slip on which the cells had grown was transferred to a fresh 12-well cell culture plate, and 997 μl of HBSS buffer and 3 μl of Fura-2-AM were added and gently mixed, followed by incubation at 37° C., 5% CO2 for 15 minutes. After incubation, the remaining Fura-2-AM was removed by washing 3-4 times with 1 ml of HBSS buffer, and an additional 1 ml was added. The cover-slip with the grown cells was placed in a chamber, and 500 μl of HBSS buffer was dispensed. The final concentration of nicotine was adjusted to 400 µM to observe the calcium imaging reaction. Then, while keeping the nicotine concentration fixed, the concentration of the sample was adjusted to find the inhibiting concentration.\nThe inhibitory ability of the Palmitate-6mer-1-43 and Palmitate-5mer-73 peptides on the acetylcholine receptor was examined in the same manner as in Example 6. […]"}, "acetylcholine receptor": {"biological_target": "acetylcholine receptor (Homo sapiens, UniProt P02708)", "assay": "SPR binding affinity (RU) of optimized 5mer/6mer/7mer peptides, Examples 6-7", "protocol": "Based on the frequencies of occurrence of the top 7 amino acids from Table 7 in Example 5, 600 peptides comprising these amino acids (top combinations) and those comprising the 13 less frequently occurring amino acids (bottom combinations) were synthesized for each series of 5mer, 6mer-1, and 6mer-2. The binding affinity of each sequence for the acetylcholine receptor was measured using Surface Plasmon Resonance (SPR) analysis method. The peptides were tested at a concentration of 10 μM. Additionally, the average binding affinities of the top and bottom combinations in each series are depicted in FIGS. 5-7.\nRepresentative peptides identified in Example 6, two in each library, including 5mers (73, 311) and 6mers-1 (43, 210) and 6mers-2 (136, 233), were compared with the pre-optimized 6mer, 5mer-ND, and Synake."}}, "note": "Not every detail of the peptide structures is certain; ends, links or a residue may be inferred. No end group written: not given here."}
{"substance": "RRQRR [5mer-73, RRQRR]", "values": [{"measurement": "concentration at which acetylcholine receptors were inhibited", "setting": "[1]", "result": 10, "unit": "µM"}, {"measurement": "Binding affinity (RU)", "setting": "acetylcholine receptor; peptides at 10 μM", "result": 179, "unit": "RU"}, {"measurement": "Binding affinity", "setting": "acetylcholine receptor; peptides tested at 10 μM, 5mer Top sequence", "result": 179, "unit": "Ru"}]}
